Assay results: publication PMC9925739
Results are given in words; binding and its absence hold for the method and conditions named. Binding seen in cells or lysates may run through a third protein. Some entries that bind do so weakly or less than the wild type.

By UniProt entry, the sequences of proteins in these tests, tags left out.
UniProt P40763: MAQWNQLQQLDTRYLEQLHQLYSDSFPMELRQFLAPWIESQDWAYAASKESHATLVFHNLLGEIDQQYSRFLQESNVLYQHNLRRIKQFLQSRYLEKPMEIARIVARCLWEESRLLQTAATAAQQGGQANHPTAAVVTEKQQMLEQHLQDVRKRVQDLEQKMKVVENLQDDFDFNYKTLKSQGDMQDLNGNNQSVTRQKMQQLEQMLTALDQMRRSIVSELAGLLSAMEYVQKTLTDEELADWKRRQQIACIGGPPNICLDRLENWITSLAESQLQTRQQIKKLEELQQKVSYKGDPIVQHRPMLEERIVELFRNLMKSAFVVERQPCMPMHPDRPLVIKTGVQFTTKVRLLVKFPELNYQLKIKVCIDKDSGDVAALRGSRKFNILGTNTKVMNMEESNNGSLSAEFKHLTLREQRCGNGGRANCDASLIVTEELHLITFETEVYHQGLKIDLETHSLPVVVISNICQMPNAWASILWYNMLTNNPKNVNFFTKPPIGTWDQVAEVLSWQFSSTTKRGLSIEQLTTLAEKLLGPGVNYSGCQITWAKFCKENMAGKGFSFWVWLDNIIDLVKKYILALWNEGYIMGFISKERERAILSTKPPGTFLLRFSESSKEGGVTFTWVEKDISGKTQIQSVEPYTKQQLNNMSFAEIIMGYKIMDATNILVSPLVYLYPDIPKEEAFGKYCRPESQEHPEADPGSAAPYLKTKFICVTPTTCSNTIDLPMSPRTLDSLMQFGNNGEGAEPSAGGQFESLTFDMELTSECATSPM
UniProt Q15672: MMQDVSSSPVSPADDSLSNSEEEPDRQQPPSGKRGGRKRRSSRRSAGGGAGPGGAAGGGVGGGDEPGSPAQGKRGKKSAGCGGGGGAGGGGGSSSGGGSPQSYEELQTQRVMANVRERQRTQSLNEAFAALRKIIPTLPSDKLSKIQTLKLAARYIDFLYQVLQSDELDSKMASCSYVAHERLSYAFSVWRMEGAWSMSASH

Target: T1, Ras-related protein 31 (human) (UniProt Q13636)
T1 sequence: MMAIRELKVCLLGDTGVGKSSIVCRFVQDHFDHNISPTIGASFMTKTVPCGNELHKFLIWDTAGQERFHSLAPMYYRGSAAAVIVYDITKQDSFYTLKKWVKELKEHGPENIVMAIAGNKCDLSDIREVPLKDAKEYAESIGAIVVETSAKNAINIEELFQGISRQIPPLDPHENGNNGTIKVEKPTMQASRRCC
Experiment: co-IP; coimmunoprecipitation from AGS cells (Fig. 4F, Fig. S2A); bait, antibody and buffer not told in the main text

| binding | Substance |
| --- | --- |
| binds | Stat3 (from UniProt P40763 1-770) |
| no binding | Twist-related protein 1 (from UniProt Q15672 1-202) |
